The other results are listed elsewhere or left out.

Protein sequences, listed by entry. Tags and fused reporters are not part of them.
UniProt Q0JBA9, entry or part of it: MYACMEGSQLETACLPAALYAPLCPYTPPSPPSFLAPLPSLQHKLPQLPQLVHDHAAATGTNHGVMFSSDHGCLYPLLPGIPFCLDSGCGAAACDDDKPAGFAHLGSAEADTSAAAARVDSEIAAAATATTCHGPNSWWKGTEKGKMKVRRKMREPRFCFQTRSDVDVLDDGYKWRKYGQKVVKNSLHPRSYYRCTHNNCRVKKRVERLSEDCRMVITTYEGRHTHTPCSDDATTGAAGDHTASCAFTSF

The experiment deals with OsWRKY34 (Oryza sativa, UniProt Q0JBA9 1-250). Description: protein-binding microarray (RPBM); PBS, 2% BSA, 51.3 ng/ul salmon testes DNA, 50 uM zinc acetate, 200 nM TF, 25 C, 1 h; high values mean tight binding. Conditions: protein: recombinant; tags: N-terminal polyhistidine and DsRed monomer fusion (pET32a); label: CyDye5-dUTP incorporated in the synthesized complementary strand; 3' TTTTT single-stranded linker to array surface; dsDNA, one strand shown. The method in brief:
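An Axon 4000B scanner gave the binding signal as per-feature fluorescence intensity in arbitrary units. This followed washing of a custom Agilent array that had been incubated for 1 h at 25 °C with 200 nM protein in PBS, 2% BSA, salmon testes DNA and 50 µM zinc acetate. The proteins were transcription factors fused at the N-terminus to polyhistidine and DsRed, expressed in E. coli BL21-CodonPlus and purified on Ni–NTA.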
Turning to “GCACACATCTCTCTCGCTCTACAACTCACCACCAAAGAGGCGGAGTCACCTAGTGCAG”, the binding signal was 11800 fluorescence intensity (a.u.).
In the case of “CCCGCACTTCCTTGCTTGGTGTGATCGGCCGCTTCCAATTCGGAGTCACCTAGTGCAG” it was 8460 fluorescence intensity (a.u.); in that of “GACCCGTTCACACCACTACGCTTCCAGCTATAGGCAGTATCGGAGTCACCTAGTGCAG”, 8410 fluorescence intensity (a.u.).
As for “CAACTGTGCCGCCGTCTCGCCGTTCCAATGGTAAGCACACCGGAGTCACCTAGTGCAG”, the binding signal is 8470 fluorescence intensity (a.u.).
To “TCAGTAAAGTCTCTTCTCTTGCTCATGCTAGCCCTGTCATCGGAGTCACCTAGTGCAG” belongs 10400 fluorescence intensity (a.u.).
In the case of “TCGTGCGCCACGCGTCGTACGCGCGTGGGCTTCTTTCCTCCGGAGTCACCTAGTGCAG” it was 9650 fluorescence intensity (a.u.); in that of “GCCTCATACTCCTTTTTTTTTTGTCTTTTTTGGTGCTCTACGGAGTCACCTAGTGCAG”, 10300 fluorescence intensity (a.u.).
In the case of “TTAAGCCCCAACTAACTCTCTCCCTCCAGGACATTTTTTTCGGAGTCACCTAGTGCAG” it was 8700 fluorescence intensity (a.u.); in that of “ATGCTATTTACCATCCTACGAAGTTTCTGTTTCAGACTCTCGGAGTCACCTAGTGCAG”, 8370 fluorescence intensity (a.u.).
With “TCCATGTACAATTAGTTGACCATTCTTCTAGTTAGCTTCTCGGAGTCACCTAGTGCAG”, the binding signal is 9620 fluorescence intensity (a.u.).
In the case of “TTATTTTATGAAATGGATCAGTATTGTTTGTCTGTTTGTACGGAGTCACCTAGTGCAG” it was 8580 fluorescence intensity (a.u.); in that of “AACACTTTGACTTTTACATAGGCCATGTCTCCATCCGAGACGGAGTCACCTAGTGCAG”, 12400 fluorescence intensity (a.u.).
In the case of “TGAAGCTAATGTCCTTGTGTTGCGCTTTCCTTTTGTTCTCCGGAGTCACCTAGTGCAG” it was 12100 fluorescence intensity (a.u.).
For the sequence “ACCTTTTCTTTCTCGCAGGAGTAGTATTTTTGAGGGTTTGCGGAGTCACCTAGTGCAG”, the binding signal was 12900 fluorescence intensity (a.u.).
As for “GGCCTCCTCGTCCTCACAAACTTCTCGTTTTCCTCGTACTCGGAGTCACCTAGTGCAG”, the binding signal is 10600 fluorescence intensity (a.u.).
To “TTTTTGTGTATTGAGCTTGGATTCTGAATCATTGGTTCTTCGGAGTCACCTAGTGCAG” belongs 8480 fluorescence intensity (a.u.); to “CGAGAGCGTTTTCCATTCGTGTTATGAGATTAGTTTTTTTCGGAGTCACCTAGTGCAG”, 8450 fluorescence intensity (a.u.).
In the case of “TACCTCCGTCTCAAATAAGTAGTGTCTTTGACTTTTTGTTCGGAGTCACCTAGTGCAG”, the binding signal is 13100 fluorescence intensity (a.u.).
In the case of “AGCCCGCACGTTCGCCGCAATCCAGTTCCTGGCCCAACTACGGAGTCACCTAGTGCAG” it was 11500 fluorescence intensity (a.u.); in that of “CATTCATCATCTGCATATATATAATCGTCTTCGTCGTCATCGGAGTCACCTAGTGCAG”, 12500 fluorescence intensity (a.u.); in that of “CCTACTTAATATAACACCAGCTTTGTTGGCTTCATTTTTTCGGAGTCACCTAGTGCAG”, 8200 fluorescence intensity (a.u.).
Turning to “CTCCGTCCTTAAATATTTGACGTCGTTGACTTTTTTAAACCGGAGTCACCTAGTGCAG”, the binding signal is 26000 fluorescence intensity (a.u.).
Turning to “TATGTCTGTATCGTTTTTCACGCGCGTGCTTCCCAAACTACGGAGTCACCTAGTGCAG”, the binding signal was 11200 fluorescence intensity (a.u.).
In the case of “TCCCATTGAGTTCATAACATCACCCCATTATCATCCCATTCGGAGTCACCTAGTGCAG” it was 10700 fluorescence intensity (a.u.).
With “ATTGTGGACTGTTTGACCTCCAGTTTGGACTGTAGGAATTCGGAGTCACCTAGTGCAG”, the binding signal is 8060 fluorescence intensity (a.u.).
Regarding “TTGCCGGGACGCGCCTGGGCGGGCGGGCGGGCTCGAGGTTCGGAGTCACCTAGTGCAG”, the binding signal is 10900 fluorescence intensity (a.u.).
To “TTACTAGCACTAAAATTTTCTATTCCATCCGTTTCAATCACGGAGTCACCTAGTGCAG” belongs 8840 fluorescence intensity (a.u.); to “TCGCCTTGTCCGCGCGTGCGCCACCGTTTCCACCCAGATTCGGAGTCACCTAGTGCAG”, 11900 fluorescence intensity (a.u.).
As for “CTCTTTGCTGCATGTTGTTCGACCTTTTTACTTACATATTCGGAGTCACCTAGTGCAG”, the binding signal was 11000 fluorescence intensity (a.u.).
Turning to “GTCCTGTTCTTGACTTCTCGTCTACTTACTTGGTAGCTTACGGAGTCACCTAGTGCAG”, the binding signal was 9870 fluorescence intensity (a.u.).
As to “TTTTCCGACCGTTTCCGACCGTTTTCATCCCTAGCCCTGACGGAGTCACCTAGTGCAG”, the binding signal was 8490 fluorescence intensity (a.u.).
On to “AAGATTTGTGATGTTACTTTATTTGTGATGTGGATTTGGGCGGAGTCACCTAGTGCAG”, for which the binding signal is 9570 fluorescence intensity (a.u.).
As for “CACAAGCTTTCTGTCCACCCCTAACCACATGTAAATGCCTCGGAGTCACCTAGTGCAG”, the binding signal was 9300 fluorescence intensity (a.u.).
Consider “ACCCTCGCTCTGCCCGTCGATCTCCGTCGCCTTCTGATCCCGGAGTCACCTAGTGCAG”, for which the binding signal is 9570 fluorescence intensity (a.u.).
Consider “AGAAGTCATATTCCTTTGAGAGTGTTGTGTGCTTGTTTTGCGGAGTCACCTAGTGCAG”, for which the binding signal is 9850 fluorescence intensity (a.u.).
To “TTTATTAAACCTAGTTAATCCATTGTTAGCAAATATTTAACGGAGTCACCTAGTGCAG” belongs 23300 fluorescence intensity (a.u.); to “TGGTGGTGGTGGATGAGGGAGCGACAATTTGGGAGGAGGTCGGAGTCACCTAGTGCAG”, 10800 fluorescence intensity (a.u.).
To “TAACTTTTTCATCACATCAACACTTTCCTACACACGTAAACGGAGTCACCTAGTGCAG” belongs 8300 fluorescence intensity (a.u.); to “TACTATTCCTTGTACTTTTACATCTCTTACTCTTAGTGATCGGAGTCACCTAGTGCAG”, 10300 fluorescence intensity (a.u.); to “GTGGGTTCTTTGTGGGGTCTCTTATAGTTTTCACTGCCAGCGGAGTCACCTAGTGCAG”, 20500 fluorescence intensity (a.u.).
To “CGCCATGCCCCGCCGCAACGCCGTCTCCTGGACCACCCTCCGGAGTCACCTAGTGCAG” belongs 9600 fluorescence intensity (a.u.).
As to “GCTCTTTTTTTTTATAAAATATATATTCCGTCTCAATTTTCGGAGTCACCTAGTGCAG”, the binding signal is 9230 fluorescence intensity (a.u.).

These data come from paper PMC7819943, “Rice protein-binding microarrays: a tool to detect cis-acting elements near promoter regions in rice”.
